# According to PubChem BioAssay AID1671190 (National Center for Advancing Translational Sciences (NCATS), 2021):
# Amino acid sequences for entries named in this document (tags omitted). A change or cut given only in a name is not applied to a line headed by its entry.
# UniProt P18054: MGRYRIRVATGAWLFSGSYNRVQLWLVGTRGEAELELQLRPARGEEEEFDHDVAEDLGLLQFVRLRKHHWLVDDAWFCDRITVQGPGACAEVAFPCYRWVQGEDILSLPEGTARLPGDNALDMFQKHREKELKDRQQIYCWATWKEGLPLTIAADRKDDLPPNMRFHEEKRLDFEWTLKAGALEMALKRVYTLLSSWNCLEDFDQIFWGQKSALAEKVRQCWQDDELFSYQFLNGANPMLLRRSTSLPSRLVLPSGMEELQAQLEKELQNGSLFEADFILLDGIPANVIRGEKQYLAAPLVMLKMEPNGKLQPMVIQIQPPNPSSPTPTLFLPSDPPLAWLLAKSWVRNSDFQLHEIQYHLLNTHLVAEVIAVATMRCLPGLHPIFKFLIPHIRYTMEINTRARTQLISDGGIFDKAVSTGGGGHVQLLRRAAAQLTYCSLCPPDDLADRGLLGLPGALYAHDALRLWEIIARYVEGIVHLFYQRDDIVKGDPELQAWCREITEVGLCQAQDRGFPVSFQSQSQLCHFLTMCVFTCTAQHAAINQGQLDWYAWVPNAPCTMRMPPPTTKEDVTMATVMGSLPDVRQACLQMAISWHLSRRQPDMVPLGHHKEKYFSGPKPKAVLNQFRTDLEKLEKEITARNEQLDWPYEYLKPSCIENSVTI
# Where “and” joins values, the source holds several entries; their conditions need not be identical. Equal values may be shown once. The campaign covered roughly 580,000 compounds. About 6,100 (1.1%) were called active. Inconclusive means that the source gave no clear call. Such entries were picked first, then a sample of the others. The call rests on the fitted dose curve; in most records, active means well fitted inhibition curve with a large enough effect; inconclusive means small, poorly fitted or top-dose-only effect, or another doubt; inactive means no such curve, though single readings can be large or run the other way. Where the call is inconclusive, the potency comes from a doubtful curve fit.
# Biological target: Polyunsaturated fatty acid lipoxygenase ALOX12 (Homo sapiens) (UniProt P18054)
# Experiment: Primary qHTS assay for inhibitors of human arachidonate 12S-lipoxygenase (ALOX12): Round 2
# Details: purified 12hLO, xylenol orange hydroperoxide absorbance; series mostly up to 108 µM
# Outline: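 Purified human 12hLO at 150 nM in 25 mM Hepes, 0.01% Triton X-100, pH 7.0, preincubated 15 min at room temperature with compound. Reaction started with 40 uM arachidonic acid, 30 min at room temperature. Hydroperoxide measured by Fe-xylenol orange, 573/405 nm absorbance ratio.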
# Potency means the concentration at half of the fitted maximal effect.
row,Structure (SMILES),Potency
1,Cc1ccc(C(C)C)c(OCC(=O)Nc2ccccc2N2CCN(C)CC2)c1,"inconclusive: 100 µM [inhibitor, single point]"
2,Cc1ccccc1S(=O)(=O)N1CCC(CCC(=O)N2CCc3ccccc3C2)CC1,"inconclusive: 25.1 µM [inhibitor, partial curve]"
3,Cc1nc(NC(=O)CN2CCN(c3cccc(Cl)c3)CC2)sc1C(=O)N(C)C,"inconclusive: 2.51 µM [inhibitor, full curve]"
4,O=c1oc2ccccc2nc1/C=C(O)/C=C/c1ccc(F)cc1,"inconclusive: 126 µM [inhibitor, partial curve, poor fit]"
5,CC(C)C[C@@H](C(=O)N[C@H](C(=O)OC1CCCC1)c1ccccc1)[C@H](O)C(=O)NO,inactive
6,Cc1cccn2c(=O)c3cc(C(=O)NC4CCCC4)c(=N)n(CCCN4CCOCC4)c3nc12,"inconclusive: 28.2 µM [inhibitor, partial curve, poor fit]"
7,COc1cccc(C2CC(=O)Nc3c2c(=O)[nH]c2ncnn32)c1 (configuration not stated),"inconclusive: 7.08 µM [inhibitor, full curve, poor fit] and inconclusive: 7.94 µM [inhibitor, full curve]"
8,COc1ccc(C)cc1NC(=O)c1cc(-c2ccc(C)o2)nc2ccccc12,"inconclusive: 6.31 µM [inhibitor, full curve, poor fit]"
9,Cc1ccc(S(=O)(=O)N2CCCCC2C(=O)NCc2ccco2)cc1 (configuration not stated),"inconclusive: 22.4 µM [inhibitor, partial curve, poor fit]"
10,Cn1c(=O)n(C)c2cc(NC(=O)CCl)ccc21,"inconclusive: 35.5 µM [inhibitor, partial curve, poor fit]"
11,Cc1ccc(C)c(S(=O)(=O)N2CCN(C(=O)CCC(=O)NCc3ccc(Cl)cc3Cl)CC2)c1,"inconclusive: 100 µM [inhibitor, single point]"
12,N#C/C(=C\c1cccnc1)c1nc2c(s1)CCCC2,inactive
13,CC(C)OC(=O)/C(C#N)=C\c1ccc(O)c(Br)c1,"inconclusive: 112 µM [inhibitor, single point]"
14,Clc1cccc(-n2cc(-c3ccccc3)c3c(N4CCCCC4)ncnc32)c1,"inconclusive: 79.4 µM [inhibitor, partial curve, poor fit]"
15,Cc1ncsc1CCC(=O)N1CCCC(Nc2ccc(F)c(F)c2)C1 (configuration not stated),inactive
16,COc1cccc(OC)c1C(=O)N1CCN(Cc2cccnc2)CC1,"inconclusive: 0.562 µM [inhibitor, full curve, poor fit]"
17,O=C(NCc1cccs1)c1cnc2sccn2c1=O,"inconclusive: 100 µM [inhibitor, single point]"

# Taken from above.
# Under Potency, Cc1ccc(C)c(S(=O)(=O)N2CCN(C(=O)CCC(=O)NCc3ccc(Cl)cc3Cl)CC2)c1 is entered as inconclusive: 100 µM [inhibitor, single point]
# Under Potency, Cc1ccc(C(C)C)c(OCC(=O)Nc2ccccc2N2CCN(C)CC2)c1 is entered as inconclusive: 100 µM [inhibitor, single point]
